Data reported in article PMC10624613.
No constants are given. Whether binding was seen depends on the method and setting. In cells and extracts the contact can be indirect. A result given as binding can be weak or reduced; the word gives no strength.

By UniProt entry, the sequences of proteins in these tests, tags left out. Where a name states a change or a piece, a line headed by the entry shows the natural chain unless it says otherwise.
UniProt O94952: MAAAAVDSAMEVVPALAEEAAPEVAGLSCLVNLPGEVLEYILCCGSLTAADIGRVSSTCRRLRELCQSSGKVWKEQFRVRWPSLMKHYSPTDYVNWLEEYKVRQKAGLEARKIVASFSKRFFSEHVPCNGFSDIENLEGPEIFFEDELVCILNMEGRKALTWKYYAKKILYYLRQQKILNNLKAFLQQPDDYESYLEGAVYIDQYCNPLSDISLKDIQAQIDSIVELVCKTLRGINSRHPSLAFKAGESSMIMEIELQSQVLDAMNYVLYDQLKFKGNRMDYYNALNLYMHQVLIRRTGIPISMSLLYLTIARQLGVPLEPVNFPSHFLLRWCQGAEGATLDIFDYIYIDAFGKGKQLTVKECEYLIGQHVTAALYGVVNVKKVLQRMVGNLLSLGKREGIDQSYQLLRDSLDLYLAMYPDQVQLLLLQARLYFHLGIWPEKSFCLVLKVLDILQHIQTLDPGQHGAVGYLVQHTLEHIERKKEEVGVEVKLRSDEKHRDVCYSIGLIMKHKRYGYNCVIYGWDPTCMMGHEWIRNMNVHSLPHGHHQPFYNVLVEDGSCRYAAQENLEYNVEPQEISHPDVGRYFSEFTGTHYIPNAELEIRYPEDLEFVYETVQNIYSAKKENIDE
UniProt P27986: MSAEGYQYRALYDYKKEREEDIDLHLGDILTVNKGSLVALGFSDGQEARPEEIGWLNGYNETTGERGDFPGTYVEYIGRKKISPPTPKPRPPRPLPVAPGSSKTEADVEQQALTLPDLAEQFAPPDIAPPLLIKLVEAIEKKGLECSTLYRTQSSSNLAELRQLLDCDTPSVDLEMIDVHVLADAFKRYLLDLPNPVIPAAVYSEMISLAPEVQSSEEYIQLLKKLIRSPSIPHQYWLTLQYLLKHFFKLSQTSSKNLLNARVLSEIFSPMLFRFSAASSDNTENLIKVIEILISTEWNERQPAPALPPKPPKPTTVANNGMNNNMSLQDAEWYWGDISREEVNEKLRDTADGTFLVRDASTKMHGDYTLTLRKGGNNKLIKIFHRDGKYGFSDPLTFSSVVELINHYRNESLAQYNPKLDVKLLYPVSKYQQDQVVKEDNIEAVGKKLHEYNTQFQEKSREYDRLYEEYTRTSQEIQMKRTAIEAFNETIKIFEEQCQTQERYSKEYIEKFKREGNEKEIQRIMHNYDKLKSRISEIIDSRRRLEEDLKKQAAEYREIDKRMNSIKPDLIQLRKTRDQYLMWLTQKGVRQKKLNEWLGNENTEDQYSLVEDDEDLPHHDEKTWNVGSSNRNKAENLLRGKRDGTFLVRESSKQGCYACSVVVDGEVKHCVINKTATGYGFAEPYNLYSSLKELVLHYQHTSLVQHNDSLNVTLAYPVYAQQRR

Target: HA-tagged FBOX domain deleted FBXO21 (UniProt O94952)
Assay: co-IP; HEK293T cells transiently transfected with GFP-tagged p85α and/or HA-tagged FBXO21/ΔFBXO21; immunoprecipitation of GFP or HA, western blot

binding: binds
Substance: GFP-tagged p85α (from UniProt P27986 1-724)
